# Test results taken from PubChem BioAssay AID2685 (National Center for Advancing Translational Sciences (NCATS), 2010).
# This is one part of the list. Shown are side measurements of this screen, not its main read-out; they come without a call. The list favours compounds with an active or inconclusive main result. Potencies come from curve fits of mixed quality, noted in brackets.
# Experiment: qHTS Assay for Lipid Storage Modulators in Drosophila S3 Cells;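 on cell number change: cells counted by Cell Tracker Red CMTPX staining in the red channel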
# Conditions: BODIPY lipid droplet fluorescence, 18-24 h; for cell number change: measured here: cell count max response, cells fed with added oleic acid
# Summary of the method: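 Drosophila S3 cells loaded with oleic acid (400 uM, as added) and compounds at several concentrations; lipid droplets imaged by 488-nm laser-scanning cytometry, 500–530 nm intensity and object ratio to cell channel. Percent activity normalized to 20 uM Triacsin C.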
# [1] = measured here: lipid fluorescence (Fed channel) AC50, cells fed with added oleic acid
# [2] = measured here: cell number channel AC50, cells fed with added oleic acid
Compound,cell number change,AC50 [1],AC50 [2]
C=CCc1cc(/C=N/n2cnnc2)cc(OCC)c1O,-12.5%,"0.651 µM [falling, single point]",
CC(C)(C)C1=Nn2c(nnc2-c2ccco2)SC1,-34.7%,,"0.92 µM [falling, full curve]"
CC(C)(C)c1ccc(C(=O)N2CCC(C(=O)NCc3ccco3)CC2)cc1,-37.3%,"13 µM [falling, partial curve, poor fit]","9.2 µM [falling, partial curve, poor fit]"
O=c1ccc2cc(S(=O)(=O)NCCCc3ccccc3)ccc2[nH]1,2.78%,"29.1 µM [rising, single point]",
CNC(=O)CSc1nnc(-c2ccco2)n1-c1ccccc1OC,-2.23%,,"0.00517 µM [falling, full curve]"
O=C(N/N=C/c1cc([N+](=O)[O-])ccc1O)c1ccc2c(c1)OCCO2,0.352%,"13 µM [falling, partial curve, poor fit]",
COc1ccc2oc(=O)c(-c3cn4ccc(C)cc4n3)cc2c1,,,"2.06 µM [rising, partial curve]"
S=c1[nH]nc(CSc2nc3ccccc3s2)n1Cc1ccccc1,36.7%,"18.4 µM [rising, partial curve]","18.4 µM [rising, single point]"
N#CC(C#N)=NNc1ccc(S(=O)(=O)N2CCCCC2)cc1,,,"2.31 µM [rising, partial curve]"
C=CCS/C(=N\n1cnc2ccccc2c1=O)N1CCCCC1,-7.16%,"6.51 µM [rising, full curve]",
COc1cc(OC)c(NC(=O)Cn2cccc2)cc1Cl,-7.85%,"0.651 µM [rising, full curve, poor fit]",
O=C(N/N=C/c1cccn1-c1ccc(O)cc1)c1cccc2ccccc12,99.1%,,"18.4 µM [rising, single point]"
Cc1ccc(-n2c(SCC(=O)N3Cc4ccccc4CC3C(=O)O)nnc2-c2cccnc2)c(C)c1 (stereo not given),20.4%,"23.1 µM [rising, single point]",
COc1cc(NC(=O)CCNC(=O)Cn2ccc3ccccc3c2=O)cc(OC)c1OC,3.85%,"4.11 µM [rising, full curve]",
Cc1cccc(-n2ccc(=O)c(C(=O)O)n2)c1,0.945%,,
CC1CCCCN1C(=O)COC(=O)CNC(=O)c1ccc(Cl)cc1Cl (stereo not given),-45.8%,"11.6 µM [falling, partial curve]","2.31 µM [falling, full curve]"
CN1CCC(N(C)S(=O)(=O)c2ccc(NC(=O)c3cccc(C#N)c3)cc2)CC1,-23.2%,"6.51 µM [rising, single point]",
O=C(CNC(=O)c1cccs1)N/N=C/c1ccc(Cl)cc1,1.28%,"14.6 µM [rising, partial curve]",
O=C1CS/C(=C\S(=O)(=O)c2ccc(Cl)cc2)N1,-9.63%,"0.366 µM [falling, full curve, poor fit]",
O=C(Nc1ccc(Oc2cccc3ccccc23)cc1)c1ccco1,-39.3%,,"11.6 µM [falling, partial curve]"

# Retrieved by compound from above (2):
Compound,cell number change,AC50 [1],AC50 [2]
Cc1ccc(-n2c(SCC(=O)N3Cc4ccccc4CC3C(=O)O)nnc2-c2cccnc2)c(C)c1 (stereo not given),20.4%,"23.1 µM [rising, single point]",
COc1ccc2oc(=O)c(-c3cn4ccc(C)cc4n3)cc2c1,,,"2.06 µM [rising, partial curve]"

# The results go on:

Compound,cell number change,AC50 [1],AC50 [2]
Cc1cc(SCC#N)n2nc(C)c(-c3ccccc3)c2n1,-35%,"1.3 µM [falling, full curve, poor fit]",
Cc1ccc(C)c(OCCN2CCOCC2)c1,1.1%,,
CCn1cc(Br)c(C(=O)NC(=S)Nc2ccc(C(=O)OC)cc2)n1,15.3%,"32.6 µM [falling, single point]",
NC(=NC(=O)c1ccccc1)C1=C(O)CCC1=O,-22.3%,,"0.291 µM [falling, full curve, poor fit]"
O=C(Cc1csc(N2CCOCC2)n1)N/N=C/c1ccc(O)c(O)c1O,,"0.651 µM [falling, single point]",
CC(C)Cc1cc(C(=O)N2CCC(N3CCC(C(=O)NC4CC4)CC3)CC2)n[nH]1,-28.3%,"32.6 µM [falling, single point]",
CCCCNC(=O)N(O)C1N(/N=C/c2ccco2)C(=S)SC1(C)C (stereo not given),30.3%,,"29.1 µM [rising, single point]"
COc1ccccc1N1CCN(C(c2ccc(F)cc2)c2nnnn2C(C)C)CC1 (stereo not given),-2.37%,"16.4 µM [rising, single point]",
COc1ccc(-c2cc(C(=O)Nc3ccc(C)c(C)c3)no2)cc1,-12%,"29.1 µM [falling, single point]",
CC(C)c1nc(SCC(=O)Nc2cccc(C(=O)O)c2)c2c3c(sc2n1)CCCC3,18%,"29.1 µM [rising, single point]",
O=c1c2cc(Br)ccc2[nH]c(=S)n1Cc1cccnc1,-2.64%,"0.651 µM [rising, full curve, poor fit]",
CCOc1ccc(-c2c(C)n([O-])c3c([n+]2=O)CCCCC3)cc1,-34.9%,"1.84 µM [falling, partial curve]","1.84 µM [falling, partial curve]"
COc1ccc(CNC(=O)C(NC(C)=O)C(=O)Nc2ccc(OC)cc2)cc1 (stereo not given),23.2%,"7.31 µM [falling, single point]",
Cc1ccccc1-c1nnc(SCC(=O)NCC2CCCO2)o1 (stereo not given),4.08%,"0.058 µM [rising, full curve, poor fit]",
CN(CCOC(=O)CN1C(=O)c2ccccc2C1=O)C1=NS(=O)(=O)c2ccccc21,-25.2%,"32.6 µM [falling, partial curve, poor fit]",
O=C(Nc1ccccc1C(=O)NCc1ccccc1)c1ccco1,116%,"20.6 µM [rising, partial curve]","25.9 µM [rising, single point]"
COc1cc2nc(=S)n(CCCN3CCOCC3)c(N)c2cc1OC,21.1%,,
COc1ccc(/C=C/C(=O)NCC(=O)N=Nc2c(O)[nH]c3ccc([N+](=O)[O-])cc23)cc1,20.3%,"29.1 µM [falling, single point]",
COc1ccc(CCN=C(N)NS(=O)(=O)c2cc(F)ccc2F)cc1,-50%,,"29.1 µM [falling, single point]"
COc1ccc(Cc2c(O)nc(SC)n(C(C)=O)c2=O)cc1,-34.7%,,"4.11 µM [falling, full curve]"

Compound,cell number change,AC50 [1],AC50 [2]
O=C(NN=C1CCCCCC1)c1ccncc1,9.83%,"0.13 µM [rising, full curve, poor fit]",
CCCn1c(=O)[nH]c(=O)c2c1nc(-c1ccc(OC(F)F)c(OC)c1)n2CCOC,,"6.51 µM [rising, single point]",
Cc1cccc(NS(=O)(=O)c2cc(C(=O)NCc3ccccn3)ccc2C)c1,13.9%,"0.103 µM [rising, full curve, poor fit]",
Cc1nnc(SC(=O)N2c3ccccc3Sc3ccccc32)s1,88.3%,"20.6 µM [rising, single point]","29.1 µM [rising, single point]"
Cc1ccc(NC(=O)CCCc2nc3ccccc3s2)c(O)c1,-15.2%,"16.4 µM [falling, single point]",
O=C(COC(=O)c1ccc2c(c1)OCCO2)Nc1cc(S(=O)(=O)N2CCOCC2)ccc1Cl,48.6%,"4.61 µM [rising, full curve]","2.31 µM [rising, full curve]"
COC(=O)c1c(NC(=O)c2cccc(S(=O)(=O)N3CCN(C)CC3)c2)sc(C)c1C,6.37%,"0.461 µM [rising, full curve]","2.06 µM [rising, partial curve]"
O=C(Nc1cccnc1)c1cc(-c2ccc(Cl)cc2Cl)on1,-12.8%,"6.51 µM [falling, partial curve]","2.06 µM [rising, single point]"
CC1(c2ccc(Cl)cc2)NC(=O)N(CC(=O)Nc2ccc(F)cc2)C1=O (stereo not given),23.9%,"14.6 µM [rising, partial curve]","0.0103 µM [rising, full curve, poor fit]"
COc1cccc(C(=O)NC2CC(C)(C)Cc3c2cnn3-c2cccc(F)c2)c1OC (stereo not given),-12.4%,"29.1 µM [falling, single point]",
COc1ccc(/C=C/c2nnc(NC(=O)CC(C)C)s2)cc1,-29.2%,"29.1 µM [falling, single point]",
CC(=O)C1C(c2ccc(OC(F)F)cc2)NC(=O)NC1(O)C(F)(F)F (stereo not given),-13.1%,,
Cc1ccc(C2=NC(C)(C)N=C2SCC(=O)Nc2ccc(Cl)cc2)cc1,10.5%,,
Cn1c(CNC(=O)c2ccco2)nnc1SCC(=O)N1c2ccccc2Sc2ccccc21,-5.36%,,
COc1ccc(C(=O)CC(=O)C(=O)NCCc2cccc(C)c2)cc1,69.3%,"29.1 µM [rising, single point]","29.1 µM [rising, single point]"
COc1ccccc1CNC(=O)CCC(=O)Nc1nnc(C)s1,-22.8%,"9.2 µM [falling, single point]","6.51 µM [falling, single point]"
O=C(Nc1nncs1)c1ccc2c(c1)OCO2,,"6.51 µM [falling, single point]",
CCn1c(=O)n(CC(=O)NCC2CCCO2)c(=O)c2c3c(sc21)CCCC3 (stereo not given),5.19%,,
CCCCn1c(S(=O)(=O)O)nc2ccccc21,-0.52%,"29.1 µM [falling, single point]",
COc1cc(F)c(C2=CC(=O)CC(C)(C)C2)cc1F,-13.7%,"0.116 µM [falling, full curve, poor fit]",
